Source: US10794898B2, “High-throughput, high-precision methods for detecting protein structural changes in living cells” (REGENTS OF THE UNIVERSITY OF MINNESOTA, priority 2014, dated 2020)
For at least one compound, name, drawing or mass did not settle the structure.

Biological target: T1, 2-color SERCA2a (2CS) (Canis lupus familiaris, UniProt O46674, INS508[…])
T1 construct: expressed in transfected cells
Assay: Live-cell 2-color SERCA (2CS) FRET assay in fluorescence lifetime plate reader
Type: cell-based, canine
Conditions: dose-response, live cells
Source text: Using recombinant DNA technology, the gene for TagRFP was fused to the N-terminus of canine SERCA2a. This fusion position is in the A-domain of the pump. EGFP was fused as an intrasequence tag before residue 509 in the N-domain. The structural model presented in FIG. 1A corresponds to the isoform SERCA1a, which is 84% homologous to SERCA2a. Hou et al. evaluated several intrasequence fusion positions chosen using x-ray crystal structures of SERCA1a to identify unstructured loops and predict large relative distance changes without affecting SERCA function. (Hou et al., PLoS ONE 2012, 7, e40369). […]
The 96-well plate format LOPAC library was reformatted into four 384-well polystyrene mother plates (Corning, Corning, N.Y.) using a Biomek FX liquid handler (Beckman Coulter, Brea, Calif.), and diluted to 500 μM using DMSO. […] Cells were collected and pelleted for 5 min at 500 g and resuspended in 10 mL PBS, then analyzed on a Countess cell counter (Invitrogen) and diluted to 1×10^6 cells/mL. […] Assay plates were spun for 1 min at 200 g and allowed to incubate at RT for 20 min before reading on a fluorescence lifetime plate reader (constructed in collaboration with Fluorescence Innovations, Inc., Minneapolis, Minn.). […]
Time-resolved fluorescence waveforms for each well were fitted to single-exponential decays using global analysis software. […]

CC(=O)C1=C(O)[C@@H]2[C@H]3c4c[nH]c5cccc(c45)C[C@H]3C(C)(C)N2C1=O [CPA, cyclopiazonic acid]
effect on FRET between GFP and RFP in 2CS: reduced
